Numbering of substitutions follows the chain as printed. Results are given in words; binding and its absence hold for the method and conditions named. In cells and extracts the contact can be indirect. Some binding calls cover weakened binding; strength is not graded here. Where a sequence is shown, tags or fusion partners need not be part of it. Each block holds one binder with its values, some of them ahead of it.
Tests used:
[1] = molecular target: T1, recombinant S-tagged mature Arabidopsis thaliana starch synthase 2 (wild type) (Arabidopsis thaliana) (UniProt Q9MAC8); assay: pull-down; S-tagged SS2 immobilised on S-protein agarose beads as bait, incubated 40 min at room temperature with plastid stroma (~1 mg/ml) with 1 mM ATP, DTT, CaCl2, protease inhibitors; washed with 20 mM Tris-HCl pH 7.5, 150 mM NaCl, 0.1% Triton-X100; immunoblot with SBE antibodies; the paper calls it co-immunoprecipitation; only the target purified
T1 sequence: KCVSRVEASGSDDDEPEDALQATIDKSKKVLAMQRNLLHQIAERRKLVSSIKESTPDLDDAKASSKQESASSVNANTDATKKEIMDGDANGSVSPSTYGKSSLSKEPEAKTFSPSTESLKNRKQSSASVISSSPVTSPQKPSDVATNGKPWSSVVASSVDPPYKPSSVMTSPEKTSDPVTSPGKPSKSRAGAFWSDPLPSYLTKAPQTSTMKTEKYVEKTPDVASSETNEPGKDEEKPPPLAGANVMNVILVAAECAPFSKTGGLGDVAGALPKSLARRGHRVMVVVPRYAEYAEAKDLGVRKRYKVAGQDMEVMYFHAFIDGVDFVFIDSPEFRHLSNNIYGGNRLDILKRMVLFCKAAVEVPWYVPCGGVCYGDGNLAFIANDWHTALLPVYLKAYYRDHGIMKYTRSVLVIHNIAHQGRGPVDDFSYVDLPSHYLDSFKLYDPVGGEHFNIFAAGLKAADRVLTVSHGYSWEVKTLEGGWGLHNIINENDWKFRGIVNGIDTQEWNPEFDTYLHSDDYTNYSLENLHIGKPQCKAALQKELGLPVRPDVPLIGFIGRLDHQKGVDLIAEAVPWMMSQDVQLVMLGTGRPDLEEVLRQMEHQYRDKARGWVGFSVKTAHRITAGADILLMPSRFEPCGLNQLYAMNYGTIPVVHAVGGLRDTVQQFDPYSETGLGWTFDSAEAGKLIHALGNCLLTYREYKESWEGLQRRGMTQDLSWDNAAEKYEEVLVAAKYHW

[2] = molecular target: T2, recombinant S-tagged mature Arabidopsis SS2 S63/65A double mutant (Arabidopsis thaliana) (UniProt Q9MAC8); assay: as above
T2 sequence: T1 sequence with S9A, S11A

[3] = molecular target: T1, recombinant S-tagged mature Arabidopsis thaliana starch synthase 2 (wild type) (Arabidopsis thaliana); assay: condition: only pre-incubated with calf intestinal phosphatase (CIP); pull-down; as a2 with maize amyloplast extract, with calf intestinal phosphatase (CIP) instead of ATP (100 U in the methods, 10 U in the legend); only the target purified
[4] = molecular target: T1, recombinant S-tagged mature Arabidopsis thaliana starch synthase 2 (wild type) (Arabidopsis thaliana); assay: pull-down; as a2 with maize amyloplast extract, untreated (neither ATP nor CIP added); only the target purified

binding [1]: binds
B1: Arabidopsis starch branching enzyme 2.2 (enzyme, UniProt Q9LZS3 33-805)
chain: FFFKKHPLSRKIFAGKQSAEFDSSSQAISASEKVLVPDNLDDDPRGFSQIFDLESQTMEYTEAVRTEDQTMNVVKERGVKPRIVPPPGDGKKIYEIDPMLRTYNNHLDYRYGQYKRLREEIDKYEGGLEAFSRGYEKLGFSRSDAGITYREWAPGAKAASLIGDFNNWNSNADIMTRNEFGVWEIFLPNNTDGSPAIPHGSRVKIRMDTPSGIKDSIPAWIKFSVQAPGEIPFNGIYYDPPEEEKYVFKHPQPKRPKSLRIYEAHVGMSSTEPMVNTYANFRDDVLPRIKKLGYNAVQIMAIQEHSYYASFGYHVTNFFAPSSRCGTPEELKSLIDRAHELGLVVLMDIVHSHASKNTLDGLNMFDGTDAHYFHSGPRGYHWMWDSRLFNYGSWEVLRYLLSNARWWLEEYKFDGFRFDGVTSMMYTHHGLSVGFTGNYTEYFGLETDVDAVNYLMLVNDMIHGLYPEAITVGEDVSGMPTFCIPVQDGGVGFDYRLHMAIADKWIEMLKKRDEDWQMGDIIYTLTNRRWSEKCISYAESHDQALVGDKTIAFWLMDKDMYDFMAVDRPSTPLIDRGIALHKMIRLITMGLGGEGYLNFMGNEFGHPEWIDFPRGEQRLSDGSVIPGNNFSYDKCRRRFDLGDADYLRYRGLQEFDQAMQHLEENYGFMTSEHQFISRKDEADRVIVFERGDLVFVFNFHWTSSYFDYRIGCSKPGKYKIVLDSDDPLFGGFNRLDRKAEYFTYDGLYDERPCSFMVYAPCRTAVVYALANHD

binding [1]: binds
binding [2]: binds
binding [3]: no binding
binding [4]: binds
B2: maize starch branching enzyme IIb (enzyme, UniProt Q08047 58-799)
chain: RKAVMVPEGENDGLASRADSAQFQSDELEVPDISEETTCGAGVADAQALNRVRVVPPPSDGQKIFQIDPMLQGYKYHLEYRYSLYRRIRSDIDEHEGGLEAFSRSYEKFGFNASAEGITYREWAPGAFSAALVGDVNNWDPNADRMSKNEFGVWEIFLPNNADGTSPIPHGSRVKVRMDTPSGIKDSIPAWIKYSVQAPGEIPYDGIYYDPPEEVKYVFRHAQPKRPKSLRIYETHVGMSSPEPKINTYVNFRDEVLPRIKKLGYNAVQIMAIQEHSYYGSFGYHVTNFFAPSSRFGTPEDLKSLIDRAHELGLLVLMDVVHSHASSNTLDGLNGFDGTDTHYFHSGPRGHHWMWDSRLFNYGNWEVLRFLLSNARWWLEEYKFDGFRFDGVTSMMYTHHGLQVTFTGNFNEYFGFATDVDAVVYLMLVNDLIHGLYPEAVTIGEDVSGMPTFALPVHDGGVGFDYRMHMAVADKWIDLLKQSDETWKMGDIVHTLTNRRWLEKCVTYAESHDQALVGDKTIAFWLMDKDMYDFMALDRPSTPTIDRGIALHKMIRLITMGLGGEGYLNFMGNEFGHPEWIDFPRGPQRLPSGKFIPGNNNSYDKCRRRFDLGDADYLRYHGMQEFDQAMQHLEQKYEFMTSDHQYISRKHEEDKVIVFEKGDLVFVFNFHCNNSYFDYRIGCRKPGVYKVVLDSDAGLFGGFSRIHHAAEHFTADCSHDNRPYSFSVYTPSRTCVVYAPVE

— publication PMC6156364, “Bioinformatic and in vitro Analyses of Arabidopsis Starch Synthase 2 Reveal Post-translational Regulatory Mechanisms” (Frontiers in Plant Science, 2018)
